Data: the odorant receptor screen of Mainland et al. (2015)
Values joined by “and” are separate entries in the source; they are usually repeats but may differ in a detail not shown here. Equal values may be shown once. Some of the results follow. Single wells; the ratio to wells without odorant was worked out here, and repeats agree poorly.

Experiments:
Test in all cases: odorant receptor activation (CRE luciferase / Renilla) (fold of no-odor wells); higher = more activation
Conditions in all cases: 100 µM
OR2Z1 clone 1296 = tested on: OR2Z1 clone 1296
OR3A2 clone 1286 = tested on: OR3A2 clone 1286
OR3A3 clone 1549 = tested on: OR3A3 clone 1549
[1] = tested on: OR3A4 I42V/S86R/E103Q/I120V/P168T/N175S clone 1550
OR4A15 A257V clone 1216 = tested on: OR4A15 A257V clone 1216
OR4A16 clone 1518 = tested on: OR4A16 clone 1518
OR4A4 clone 1134 = tested on: OR4A4 clone 1134
[2] = tested on: OR4A47 I104L/V145M clone 1579
OR4A5 clone 1637 = tested on: OR4A5 clone 1637
OR4B1 clone 1189 = tested on: OR4B1 clone 1189
OR4C11 clone 1244 = tested on: OR4C11 clone 1244
OR4C12 V283L clone 1155 = tested on: OR4C12 V283L clone 1155
OR4C15 clone 1337 = tested on: OR4C15 clone 1337
OR4C15 clone 1449 = tested on: OR4C15 clone 1449
[3] = tested on: OR4C16 V25L/T76A/L259P clone 1237
OR4C3 clone 1284 = tested on: OR4C3 clone 1284
OR4C3 clone 1480 = tested on: OR4C3 clone 1480
OR4C46 K288R clone 1483 = tested on: OR4C46 K288R clone 1483
OR4C5 clone 1307 = tested on: OR4C5 clone 1307
OR3A1 clone 1288 = tested on: OR3A1 clone 1288

CCOc1cc(C=O)ccc1O [ethyl vanillin]
odorant receptor activation (OR2Z1 clone 1296): 2.41 and 0.825 | odorant receptor activation (OR3A2 clone 1286): 1.09 and 0.765 | odorant receptor activation (OR3A3 clone 1549): 0.877 | odorant receptor activation [1]: 0.953 | odorant receptor activation (OR4A15 A257V clone 1216): 1.39 and 1.42 | odorant receptor activation (OR4A16 clone 1518): 1.12 and 2.17 and 0.921 | odorant receptor activation (OR4A4 clone 1134): 0.872 and 1.25 | odorant receptor activation [2]: 0.684 | odorant receptor activation (OR4A5 clone 1637): 0.969 | odorant receptor activation (OR4B1 clone 1189): 1.47 and 1.15 | odorant receptor activation (OR4C11 clone 1244): 1.21 and 0.974 | odorant receptor activation (OR4C12 V283L clone 1155): 2 and 1.16 | odorant receptor activation (OR4C15 clone 1337): 0.849 and 1.17 | odorant receptor activation (OR4C15 clone 1449): 1.36 and 1.96 and 1.38 | odorant receptor activation [3]: 0.799 | odorant receptor activation (OR4C3 clone 1284): 1.47 and 1.19 | odorant receptor activation (OR4C3 clone 1480): 1.18 and 2.48 and 1.25 | odorant receptor activation (OR4C46 K288R clone 1483): 1.24 and 2.47 and 1.23 | odorant receptor activation (OR4C5 clone 1307): 1.16 and 1.15

CCC(C)=O [2-butanone]
odorant receptor activation (OR2Z1 clone 1296): 0.932 | odorant receptor activation (OR3A1 clone 1288): 0.874 | odorant receptor activation (OR3A2 clone 1286): 0.812 | odorant receptor activation (OR3A3 clone 1549): 0.799 | odorant receptor activation [1]: 0.739 | odorant receptor activation (OR4A15 A257V clone 1216): 0.892 | odorant receptor activation (OR4A16 clone 1518): 1.28 | odorant receptor activation (OR4A4 clone 1134): 0.926 | odorant receptor activation [2]: 0.719 | odorant receptor activation (OR4A5 clone 1637): 0.847 | odorant receptor activation (OR4B1 clone 1189): 0.765 | odorant receptor activation (OR4C11 clone 1244): 1.4 | odorant receptor activation (OR4C12 V283L clone 1155): 1.03 | odorant receptor activation (OR4C15 clone 1337): 1.14 | odorant receptor activation (OR4C15 clone 1449): 0.956 | odorant receptor activation [3]: 0.925 | odorant receptor activation (OR4C3 clone 1284): 0.966 | odorant receptor activation (OR4C3 clone 1480): 0.823 | odorant receptor activation (OR4C46 K288R clone 1483): 1.08 | odorant receptor activation (OR4C5 clone 1307): 1.19

CCCCOC(C)=O [butyl acetate]
odorant receptor activation (OR2Z1 clone 1296): 0.852 | odorant receptor activation (OR3A1 clone 1288): 0.909 | odorant receptor activation (OR3A2 clone 1286): 0.931 | odorant receptor activation (OR3A3 clone 1549): 0.961 | odorant receptor activation [1]: 1.1 | odorant receptor activation (OR4A15 A257V clone 1216): 1.03 | odorant receptor activation (OR4A16 clone 1518): 1.11 | odorant receptor activation (OR4A4 clone 1134): 1.11 | odorant receptor activation [2]: 0.645 | odorant receptor activation (OR4A5 clone 1637): 0.765 | odorant receptor activation (OR4B1 clone 1189): 1.07 | odorant receptor activation (OR4C11 clone 1244): 0.861 | odorant receptor activation (OR4C12 V283L clone 1155): 1.12 | odorant receptor activation (OR4C15 clone 1337): 0.729 | odorant receptor activation (OR4C15 clone 1449): 0.177 | odorant receptor activation [3]: 0.892 | odorant receptor activation (OR4C3 clone 1284): 0.806 | odorant receptor activation (OR4C3 clone 1480): 0.887 | odorant receptor activation (OR4C46 K288R clone 1483): 0.968 | odorant receptor activation (OR4C5 clone 1307): 0.803

CS [methanethiol]
odorant receptor activation (OR2Z1 clone 1296): 0.586 | odorant receptor activation (OR3A1 clone 1288): 1.14 | odorant receptor activation (OR3A2 clone 1286): 1.01 | odorant receptor activation (OR3A3 clone 1549): 0.588 | odorant receptor activation [1]: 0.682 | odorant receptor activation (OR4A15 A257V clone 1216): 1.07 | odorant receptor activation (OR4A16 clone 1518): 0.945 | odorant receptor activation (OR4A4 clone 1134): 0.91 | odorant receptor activation [2]: 0.745 | odorant receptor activation (OR4A5 clone 1637): 0.782 | odorant receptor activation (OR4B1 clone 1189): 0.964 | odorant receptor activation (OR4C11 clone 1244): 0.71 | odorant receptor activation (OR4C12 V283L clone 1155): 1.16 | odorant receptor activation (OR4C15 clone 1337): 0.913 | odorant receptor activation (OR4C15 clone 1449): 0.959 | odorant receptor activation [3]: 0.882 | odorant receptor activation (OR4C3 clone 1284): 0.89 | odorant receptor activation (OR4C3 clone 1480): 0.786 | odorant receptor activation (OR4C46 K288R clone 1483): 0.884 | odorant receptor activation (OR4C5 clone 1307): 0.809
